IC50 data for 1 compound are collected here from patent US6911542B2, “Pyrazino[1′,2′:1,6]pyrido[3,4b]indole derivatives” (Lilly Icos LLC., priority 2000, dated 2005).

The structures given here were assigned with low confidence; some may be wrong.

The term IC50 denotes the concentration needed to halve the response being measured.

The assay addresses human recombinant PDE5 (Homo sapiens, UniProt O76074). Briefly: cGMP-PDE one-step inhibition assay, human recombinant PDE5. In kind it is biochemical. As to conditions: read-out: PDE5 IC50, 0.15 μM 8-[H3]-cGMP, 30 min incubation.

`O=C1[C@H]2Cc3c([nH]c4ccccc34)[C@@H](c3ccc4occc4c3)N2C(=O)CN1CCn1cccn1`: the IC50 came to 100 nM.
